Measurements reported in article PMC9574752.
Results are given in words; binding and its absence hold for the method and conditions named. In cells and extracts the contact can be indirect. Some entries that bind do so weakly or less than the wild type. Sequences can lack the tags named with a protein.

Molecular target: T1, FLAG-OTUD6B isoform 1 (IF1) (UniProt Q8N6M0)
T1 sequence: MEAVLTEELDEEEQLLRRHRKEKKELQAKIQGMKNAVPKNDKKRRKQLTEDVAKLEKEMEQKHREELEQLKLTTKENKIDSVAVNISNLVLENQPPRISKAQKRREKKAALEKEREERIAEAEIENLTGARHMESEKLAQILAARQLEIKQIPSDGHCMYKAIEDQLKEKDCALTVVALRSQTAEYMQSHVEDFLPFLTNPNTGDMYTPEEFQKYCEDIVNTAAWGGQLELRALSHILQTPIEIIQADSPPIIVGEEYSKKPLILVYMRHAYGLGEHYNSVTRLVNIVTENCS
Experiment: co-IP; FLAG-tagged proteins expressed in HEK293T; whole cell extract (150 mM NaCl, 50 mM Tris-HCl pH 7.5, 5 mM MgCl2, 1 mM EDTA, 0.1% NP-40, 5% glycerol) on FLAG-M2 agarose at 4°C for 1.5-2 h; immunoblot

B1: LIN28B, endogenous in HEK293T cells (protein, UniProt Q6ZN17 1-250)
chain: MAEGGASKGGGEEPGKLPEPAEEESQVLRGTGHCKWFNVRMGFGFISMINREGSPLDIPVDVFVHQSKLFMEGFRSLKEGEPVEFTFKKSSKGLESIRVTGPGGSPCLGSERRPKGKTLQKRKPKGDRCYNCGGLDHHAKECSLPPQPKKCHYCQSIMHMVANCPHKNVAQPPASSQGRQEAESQPCTSTLPREVGGGHGCTSPPFPQEARAEISERSGRSPQEASSTKSSIAPEEQSKKGPSVQKRKKT
binding: binds
